Experimental data as given in PubChem BioAssay AID540256 (National Center for Advancing Translational Sciences (NCATS), 2011).
Out of some 300,000 compounds screened, about 3,700 (1.2%) were called active. The inconclusive results got no clear call from the source; some entries with a clear call stand among them for comparison. The call rests on the fitted dose curve; tested in HEK293 cells. Potencies beside an inconclusive call are fits to weak or partial responses and may not hold up.

Experiment: qHTS for Inhibitors of binding or entry into cells for Lassa Virus; further: nearly all actives have a fitted effect of over 50% in size
Conditions: Lassa virus pseudotype entry inhibition, cell reporter; activity change, negative = inhibition: at 37.9 µM (top of the series) unless noted
On the % scale 0 is the no-effect control and ±100 the full control effect; potency means the concentration at half of the fitted maximal effect.

Structure (SMILES) | Potency | activity change, negative = inhibition
COc1ccc(-c2c(C)c3ccc(O)c(CN4CCCC4)c3oc2=O)cc1OC | inconclusive: 3.98 µM [activator, partial curve, poor fit] | 
O=C(Nc1ccc(Nc2ccccc2)cc1)c1ccc(Cl)cc1Cl |  | inactive: -15.3%
COC(=O)N1CCCc2cc(S(=O)(=O)NCc3ccccc3)ccc21 |  | inactive: -23.3% [at 46.1 µM]
COc1ccc(C)cc1NC(=O)CSc1nnc(CC(=O)Nc2cccc(C(F)(F)F)c2)n1C | inconclusive: 6.51 µM [inhibitor, single point] | 
Cc1cc(=O)oc2c(C)c(OC(C)C(=O)NCCN3CCOCC3)ccc12 (configuration not stated) |  | inactive: -0.345% [at 46.1 µM]
CCOc1ccc(NC(=O)c2sc3nc4n(c(=O)c3c2C)CCC4)cc1 | inconclusive: 4.47 µM [inhibitor, full curve, poor fit] | 
Cc1ccc(NC(=O)C(C)N=C2NS(=O)(=O)c3ccccc32)cc1 (configuration not stated) |  | inactive: -0.788%
O=C(NC1CCCC1)C(c1ccccc1F)N(C(=O)Cc1cccs1)c1ccc2c(c1)OCCO2 (configuration not stated) | inconclusive: 20.6 µM [inhibitor, single point] | 
CC1=CC2=NC(=O)/C(=C\c3ccc(-c4cccc(Cl)c4)o3)C(=N)N2O1 | inconclusive: 17.8 µM [inhibitor, single point] | 
CCOC(=O)c1ccc(NC(=O)c2cccn(Cc3ccc(C)cc3)c2=O)cc1 | inconclusive: 2.24 µM [inhibitor, full curve, poor fit] | 
Cc1ccc(C(=O)NCCNC(=O)COc2ccc(C)c(C)c2)cn1 |  | inactive: 25.4%
Cc1ccc(S(=O)(=O)c2ccc([N+](=O)[O-])cn2)cc1 | inconclusive: 11.2 µM [inhibitor, partial curve, poor fit] | 
CN(CC1CCCO1)S(=O)(=O)c1ccc(C(=O)Nc2ccccc2F)cc1 (configuration not stated) |  | inactive: -22.2%
O=C(COC(=O)c1cc[n+]([O-])cc1)Nc1ccc([N+](=O)[O-])cc1C(F)(F)F | inconclusive: 35.5 µM [inhibitor, single point] | 
O=C(/C=C/c1ccccc1Cl)N1CCC(c2nc3ccccc3o2)CC1 |  | inactive: 10.7% [at 46.1 µM]
CCC(=O)Nc1ccc(NC(=O)c2ccco2)cc1 | inconclusive: 2.91 µM [activator, partial curve, poor fit] | 
O=C(c1ccc2ncsc2c1)N1CCN(c2nc3ccccc3s2)CC1 | inconclusive: 35.5 µM [inhibitor, single point] | 
Cc1ccc2oc(-c3ccc(NC(=O)CCC(=O)O)cc3)nc2c1 | inconclusive: 0.562 µM [activator, full curve, poor fit] | 
O=S(=O)(c1ccccc1)N1CCN(c2ccnc3cc(Cl)ccc23)CC1 | inconclusive: 35.5 µM [inhibitor, single point] | 
Cc1cc(C)c2c(c1)NC(C(=O)O)C1CC=CC21 (configuration not stated) |  | inactive: -6.85% [at 46.1 µM]
CCOC(=O)N1CCN(C(=O)c2ccc(Cn3c(=S)[nH]c4cc(OCC)c(OCC)cc4c3=O)cc2)CC1 | inconclusive: 8.91 µM [inhibitor, partial curve] | 

Quoted from the results shown, 3 compounds:
Structure (SMILES) | Potency | activity change, negative = inhibition
CCC(=O)Nc1ccc(NC(=O)c2ccco2)cc1 | inconclusive: 2.91 µM [activator, partial curve, poor fit] | 
O=C(c1ccc2ncsc2c1)N1CCN(c2nc3ccccc3s2)CC1 | inconclusive: 35.5 µM [inhibitor, single point] | 
Cc1ccc2oc(-c3ccc(NC(=O)CCC(=O)O)cc3)nc2c1 | inconclusive: 0.562 µM [activator, full curve, poor fit] | 

Going on with the list.

Structure (SMILES) | Potency | activity change, negative = inhibition
O=c1c2cccc(Cl)c2nc2n1Cc1ccccc1-2 | inconclusive: 35.5 µM [activator, single point] | 
O=C(Nc1cccc([N+](=O)[O-])c1)c1ccc(-c2ccccc2)cc1 | inconclusive: 0.631 µM [activator, partial curve, poor fit] | 
CCn1c(SCC(=O)OC)nnc1-c1ccncc1 |  | inactive: 29.4%
CCOC(=O)Cc1csc(NC(=S)NC(=O)C(C)(C)C)n1 | inconclusive: 11.2 µM [inhibitor, single point] | 
CC1=C(C(=O)OCC2CCCO2)C(c2cccc(C(F)(F)F)c2)C2=C(CC(c3ccco3)CC2=O)N1 (configuration not stated) | inconclusive: 23.1 µM [inhibitor, single point] | 
COc1cccc(NC(=S)N2CCCN(Cc3ccc(F)cc3)C2)c1 | inconclusive: 35.5 µM [inhibitor, single point] | 
Cc1ccn2c(CNCC3OCCc4ccccc43)c(C(=O)N3CCCCCC3)nc2c1 (configuration not stated) | inconclusive: 3.98 µM [inhibitor, full curve, poor fit] | 
COC(=O)CN1C(=O)CSc2ncccc21 |  | inactive: 0.624%
O=C(c1ccc(CS(=O)Cc2ccc(Cl)cc2)o1)N1CCN(c2ccccn2)CC1 (configuration not stated) | inconclusive: 35.5 µM [inhibitor, single point] | 
Cn1ccc2c(-c3ccc(C(=O)O)cc3)cc3c(c21)C1CCC3O1 (configuration not stated) | inconclusive: 5.6 µM [activator, partial curve, poor fit] | 
CC(C(=O)Nc1ccc(O)cc1)c1cccc(C(=O)c2ccccc2)c1 (configuration not stated) | inconclusive: 7.08 µM [inhibitor, full curve, poor fit] | 
O=C(COc1ccccc1)Nc1nnc(-c2ccc(Cl)cc2)o1 | inconclusive: 1.26 µM [activator, single point] | 
Cc1ccccc1COC[C@H](CC(C)C)N1CCN(C(=O)c2cccc(C(F)(F)F)c2)CCC1=O | inconclusive: 8.2 µM [inhibitor, partial curve, poor fit] | 
Cc1ccccc1COC(=O)c1nn(-c2ccccc2)nc1N | inconclusive: 10 µM [inhibitor, partial curve] | 
CCNC(=O)c1ccc(NC(=O)N2CCCCc3ccccc32)cc1 |  | inactive: -1.98% [at 46.1 µM]
CC(C)c1cc(C(=O)N2CCN(C(c3ccccc3)c3ccccc3)CC2)no1 | inconclusive: 11.2 µM [inhibitor, partial curve] | 
COc1ccccc1NC(=O)c1ccc(-n2cccn2)c([N+](=O)[O-])c1 | inconclusive: 3.98 µM [activator, full curve, poor fit] | 
CC(=O)Nc1cccc(Oc2nc(C(F)(F)F)nc3ccccc23)c1 |  | inactive: 24.2% [at 46.1 µM]
CC(=O)Nc1cccc(N/C=C(\C=O)c2nc3ccccc3o2)c1 | inconclusive: 1 µM [activator, partial curve, poor fit] | 
CCCCCCC#C[C@@H]1C=C[C@H](OC(C)=O)[C@@H](COC(C)=O)O1 | inconclusive: 2.66 µM [inhibitor, single point] | 
